Measured values taken from patent publication US10292960B2, “Anticancer agent comprising aminoacetonitrile compound as active ingredient” (PITNEY PHARMACEUTICALS PTY LIMITED, priority 2013, dated 2019).
Some of these results come from one statement about several compounds together. For some of these results: At least one compound was matched to its structure with a doubt left.

Assays:
Format in all cases: cell-based
Conditions in all cases: 30 μM test substance, cultured 72 hr, Alamar Blue
[1] = tested on: human brain glioblastoma cell line (U-87); assay: U-87 cell growth inhibitory activity test
[2] = tested on: human oophoroma cell line (OVCAR-3); assay: OVCAR-3 cell growth inhibitory activity test
[3] = tested on: human neuroepithelioma cell line (SK-N-MC); assay: SK-N-MC cell growth inhibitory activity test

Row | SMILES | cell growth inhibitory effect (inhibition ratio) against U-87 [1] | cell growth inhibitory effect (inhibition ratio) against OVCAR-3 [2] | cell growth inhibitory effect (inhibition ratio) against SK-N-MC [3]
1 | COC(=O)c1ccc(OCC(C)(C#N)NC(=O)c2ccc(SC(F)(F)F)cc2)cc1 (stereo not shown) [5-136] | not less than 50% |  | 
2 | COc1cscc1C(=O)NC(C)(C#N)COc1ccccc1Cl (stereo not shown) [6-107] |  | not less than 50% | not less than 50%
3 | CC(C#N)(COc1ccc(C(F)(F)F)cc1)NC(=O)Cc1ccc(OC(F)(F)F)cc1 (stereo not shown) [2-94] |  | not less than 50% | not less than 50%
4 | CC(C#N)(COc1cccc(F)c1)NC(=O)Cc1ccc(SC(F)(F)F)cc1 (stereo not shown) [5-115] | not less than 50% |  | 
5 | CC(C#N)(COc1ccc(C#Cc2cccnc2)cc1)NC(=O)Cc1ccc(SC(F)(F)F)cc1 (stereo not shown) [5-149] |  | not less than 50% | not less than 50%
6 | COC(C(=O)NC(C)(C#N)COc1cc(C#N)ccc1C(F)(F)F)c1ccc(C(F)(F)F)cc1 (stereo not shown) [2-130] |  | not less than 50% | not less than 50%
7 | CC(C#N)(COc1ccc(C(F)(F)F)cc1)NC(=O)Cc1ccc(C(F)(F)C(F)(F)F)cc1 (stereo not shown) [2-115] |  | not less than 50% | not less than 50%
8 | CN1CCOc2cc(C(=O)NC(C)(C#N)COc3ccccc3Cl)cnc21 (stereo not shown) [6-77] |  | not less than 50% | not less than 50%
9 | Cc1nc(C)c(C(=O)NC(C)(C#N)COc2cc(C#N)ccc2C(F)(F)F)s1 (stereo not shown) [6-16] |  | not less than 50% | not less than 50%
10 | CC(C#N)(COc1cccc(S(=O)(=O)C(F)(F)F)c1)NC(=O)Cc1ccc(SC(F)(F)F)cc1 (stereo not shown) [2-142] |  | not less than 50% | not less than 50%
11 | CC(C)(C)C(C#N)(COc1ccc(Cl)cc1)NC(=O)Cc1ccccc1Cl (stereo not shown) [2-72] |  | not less than 50% | not less than 50%
12 | CC(C)(C)C(C#N)(COc1ccc(C(F)(F)F)cc1)NC(=O)c1ccc(Cl)cc1Cl (racemic) [1-56] |  | not less than 50% | not less than 50%
13 | CC(C#N)(COc1cc([N+](=O)[O-])ccc1C(F)(F)F)NC(=O)Cc1ccc(SC(F)(F)F)cc1 (stereo not shown) [2-132] |  | not less than 50% | not less than 50%
14 | CC(C#N)(COc1ccc(-c2ccccc2)cc1)NC(=O)Cc1ccc(SC(F)(F)F)cc1 (stereo not shown) [2-135] |  | not less than 50% | not less than 50%
15 | CC(C)(C)C(C#N)(COc1ccc(Cl)cc1)NC(=O)Cc1cccc(Cl)c1 (stereo not shown) [2-73] |  | not less than 50% | not less than 50%
16 | CC(C#N)(COc1cc(C#N)ccc1C(F)(F)F)NC(=O)c1ccc(C(F)(F)F)cc1 (stereo not shown) [5-144] |  | not less than 50% | not less than 50%
17 | CCC(C#N)(COc1ccc(Cl)cc1)NC(=O)c1ccc(C(F)(F)F)cc1 (racemic) [1-4] |  | not less than 50% | not less than 50%
18 | CC(C#N)(COc1ccc(SC(F)(F)F)cc1)NC(=O)c1ccc(C(F)(F)F)nc1 (stereo not shown) [5-18] | not less than 50% |  | 
19 | COc1cc(C(=O)NC(C)(C#N)COc2cc(C#N)ccc2C(F)(F)F)cc(Cl)n1 (stereo not shown) [5-19] | not less than 50% |  | 
20 | Cc1nn(C)c(C(=O)NC(C)(C#N)COc2ccccc2Cl)c1Cl (stereo not shown) [5-53] |  | not less than 50% | not less than 50%
21 | Cn1nc(C(F)(F)F)c(Cl)c1OCC(C)(C#N)NC(=O)Cc1ccc(SC(F)(F)F)cc1 (stereo not shown) [2-138] |  | not less than 50% | not less than 50%
22 | CCOC(=O)c1nc(-c2ccc(F)cc2)c(CC(=O)NC(C)(C#N)COc2ccc(SC(F)(F)F)cc2)s1 (stereo not shown) [6-114] | not less than 50% |  | 
23 | Cc1nn(C)c(C(=O)NC(C)(C#N)COc2cc(C#N)ccc2C(F)(F)F)c1Cl (stereo not shown) [5-52] |  | not less than 50% | not less than 50%
24 | COC(=O)c1nc(-c2ccccc2)c(CC(=O)NC(C)(C#N)COc2ccccc2Cl)s1 (stereo not shown) [6-116] | not less than 50% |  | 

Row | SMILES | cell growth inhibitory effect (inhibition ratio) against U-87 [1] | cell growth inhibitory effect (inhibition ratio) against OVCAR-3 [2] | cell growth inhibitory effect (inhibition ratio) against SK-N-MC [3]
25 | CC(C#N)(COc1cccc([S+]([O-])C(F)(F)F)c1)NC(=O)Cc1ccc(SC(F)(F)F)cc1 (stereo not shown) [2-141] |  | not less than 50% | not less than 50%
26 | CC(C#N)(COc1ccc(C(F)(F)F)cc1)NC(=O)c1cccnc1SC(F)F (racemic) [1-50] |  | not less than 50% | not less than 50%
27 | CC(C#N)(COc1ccc(Oc2ccccc2)cc1)NC(=O)Cc1ccc(C(F)(F)F)cc1 (stereo not shown) [2-51] |  | not less than 50% | not less than 50%
28 | CC(C#N)(COc1ccc(C(F)(F)F)cc1)NC(=O)c1cccc(C(F)(F)F)c1 (racemic) [1-9] |  | not less than 50% | not less than 50%
29 | CC(C#N)(COc1ccc(Oc2ccc(C(F)(F)F)cn2)cc1)NC(=O)Cc1ccc(Cl)cc1 (stereo not shown) [2-60] |  | not less than 50% | not less than 50%
30 | CC(C#N)(COc1cc(C#N)ccc1C(F)(F)F)NC(=O)C(F)c1ccc(C(F)(F)F)cc1 (stereo not shown) [2-129] |  | not less than 50% | not less than 50%
31 | CC(C#N)(COc1ccc(C(F)(F)F)cc1)NC(=O)c1ccc(Oc2ncc(C(F)(F)F)cc2Cl)cc1 (racemic) [1-55] |  | not less than 50% | not less than 50%
32 | CC(C#N)(COc1ccc(C(F)(F)C(F)(F)F)cc1)NC(=O)Cc1ccc(Cl)cc1 (stereo not shown) [2-98] |  | not less than 50% | not less than 50%
33 | COc1cscc1C(=O)NC(C)(C#N)COc1ccc(SC(F)(F)F)cc1 (stereo not shown) [6-108] |  | not less than 50% | not less than 50%
34 | CC(C#N)(COc1ccc(C(F)(F)F)cc1)NC(=O)c1ccc(C(F)(F)C(F)(F)F)cc1 (racemic) [1-10] |  | not less than 50% | not less than 50%
35 | CC(C#N)(COc1cc(C#N)ccc1C(F)(F)F)NC(=O)c1cccc(SC(F)(F)F)c1 (stereo not shown) [5-141] |  | not less than 50% | not less than 50%
36 | CC(C#N)(COc1ccc(Cl)cc1)NC(=O)C1(c2ccc(Cl)cc2)CCC1 (stereo not shown) [2-66] |  | not less than 50% | not less than 50%
37 | CC(C)c1ccc(OCC(C)(C#N)NC(=O)Cc2ccc(F)cc2)cc1 (stereo not shown) [2-63] |  | not less than 50% | not less than 50%
38 | COC(=O)Nc1ccc(OCC(C)(C#N)NC(=O)c2ccc(SC(F)(F)F)cc2)cc1 (stereo not shown) [5-130] |  | not less than 50% | not less than 50%
39 | CC(C#N)(COc1ccc(C(F)(F)F)cc1)NC(=O)c1ccc(Cl)c(Cl)c1 (racemic) [1-18] |  | not less than 50% | not less than 50%
40 | Cc1nn(C)c(C(=O)NC(C)(C#N)COc2ccc(SC(F)(F)F)cc2)c1C (stereo not shown) [5-60] |  | not less than 50% | not less than 50%
41 | CC(C#N)(COc1ccc(OCC=C(Cl)Cl)cc1)NC(=O)Cc1ccc(C(F)(F)F)cc1 (stereo not shown) [2-103] |  | not less than 50% | not less than 50%
42 | CC(C#N)(COc1ccc(C#Cc2ccncc2)cc1)NC(=O)Cc1ccc(SC(F)(F)F)cc1 (stereo not shown) [5-150] |  | not less than 50% | not less than 50%
43 | CC(C)c1cc(C(=O)NC(C)(C#N)COc2cc(C#N)ccc2C(F)(F)F)n(C)n1 (stereo not shown) [5-61] |  | not less than 50% | not less than 50%
44 | Cc1cc(C(=O)NC(C)(C#N)COc2cc(C#N)ccc2C(F)(F)F)n(C)n1 (stereo not shown) [5-55] |  | not less than 50% | not less than 50%
45 | N#CC(COc1ccc(Cl)cc1)NC(=O)Cc1ccccc1Cl (stereo not shown) [2-37] |  | not less than 50% | not less than 50%
46 | Cn1ncc(C(=O)NC(C)(C#N)COc2cc(C#N)ccc2C(F)(F)F)c1C(F)(F)F (stereo not shown) [5-31] |  | not less than 50% | not less than 50%
47 | Cn1nc(OC(F)F)cc1C(=O)NC(C)(C#N)COc1ccccc1Cl (stereo not shown) [5-74] |  | not less than 50% | not less than 50%
